This passage reports binding results from PMC3029254.

Protein sequences, listed by entry. Tags and fused reporters are not part of them.
UniProt Q7Z6Z7: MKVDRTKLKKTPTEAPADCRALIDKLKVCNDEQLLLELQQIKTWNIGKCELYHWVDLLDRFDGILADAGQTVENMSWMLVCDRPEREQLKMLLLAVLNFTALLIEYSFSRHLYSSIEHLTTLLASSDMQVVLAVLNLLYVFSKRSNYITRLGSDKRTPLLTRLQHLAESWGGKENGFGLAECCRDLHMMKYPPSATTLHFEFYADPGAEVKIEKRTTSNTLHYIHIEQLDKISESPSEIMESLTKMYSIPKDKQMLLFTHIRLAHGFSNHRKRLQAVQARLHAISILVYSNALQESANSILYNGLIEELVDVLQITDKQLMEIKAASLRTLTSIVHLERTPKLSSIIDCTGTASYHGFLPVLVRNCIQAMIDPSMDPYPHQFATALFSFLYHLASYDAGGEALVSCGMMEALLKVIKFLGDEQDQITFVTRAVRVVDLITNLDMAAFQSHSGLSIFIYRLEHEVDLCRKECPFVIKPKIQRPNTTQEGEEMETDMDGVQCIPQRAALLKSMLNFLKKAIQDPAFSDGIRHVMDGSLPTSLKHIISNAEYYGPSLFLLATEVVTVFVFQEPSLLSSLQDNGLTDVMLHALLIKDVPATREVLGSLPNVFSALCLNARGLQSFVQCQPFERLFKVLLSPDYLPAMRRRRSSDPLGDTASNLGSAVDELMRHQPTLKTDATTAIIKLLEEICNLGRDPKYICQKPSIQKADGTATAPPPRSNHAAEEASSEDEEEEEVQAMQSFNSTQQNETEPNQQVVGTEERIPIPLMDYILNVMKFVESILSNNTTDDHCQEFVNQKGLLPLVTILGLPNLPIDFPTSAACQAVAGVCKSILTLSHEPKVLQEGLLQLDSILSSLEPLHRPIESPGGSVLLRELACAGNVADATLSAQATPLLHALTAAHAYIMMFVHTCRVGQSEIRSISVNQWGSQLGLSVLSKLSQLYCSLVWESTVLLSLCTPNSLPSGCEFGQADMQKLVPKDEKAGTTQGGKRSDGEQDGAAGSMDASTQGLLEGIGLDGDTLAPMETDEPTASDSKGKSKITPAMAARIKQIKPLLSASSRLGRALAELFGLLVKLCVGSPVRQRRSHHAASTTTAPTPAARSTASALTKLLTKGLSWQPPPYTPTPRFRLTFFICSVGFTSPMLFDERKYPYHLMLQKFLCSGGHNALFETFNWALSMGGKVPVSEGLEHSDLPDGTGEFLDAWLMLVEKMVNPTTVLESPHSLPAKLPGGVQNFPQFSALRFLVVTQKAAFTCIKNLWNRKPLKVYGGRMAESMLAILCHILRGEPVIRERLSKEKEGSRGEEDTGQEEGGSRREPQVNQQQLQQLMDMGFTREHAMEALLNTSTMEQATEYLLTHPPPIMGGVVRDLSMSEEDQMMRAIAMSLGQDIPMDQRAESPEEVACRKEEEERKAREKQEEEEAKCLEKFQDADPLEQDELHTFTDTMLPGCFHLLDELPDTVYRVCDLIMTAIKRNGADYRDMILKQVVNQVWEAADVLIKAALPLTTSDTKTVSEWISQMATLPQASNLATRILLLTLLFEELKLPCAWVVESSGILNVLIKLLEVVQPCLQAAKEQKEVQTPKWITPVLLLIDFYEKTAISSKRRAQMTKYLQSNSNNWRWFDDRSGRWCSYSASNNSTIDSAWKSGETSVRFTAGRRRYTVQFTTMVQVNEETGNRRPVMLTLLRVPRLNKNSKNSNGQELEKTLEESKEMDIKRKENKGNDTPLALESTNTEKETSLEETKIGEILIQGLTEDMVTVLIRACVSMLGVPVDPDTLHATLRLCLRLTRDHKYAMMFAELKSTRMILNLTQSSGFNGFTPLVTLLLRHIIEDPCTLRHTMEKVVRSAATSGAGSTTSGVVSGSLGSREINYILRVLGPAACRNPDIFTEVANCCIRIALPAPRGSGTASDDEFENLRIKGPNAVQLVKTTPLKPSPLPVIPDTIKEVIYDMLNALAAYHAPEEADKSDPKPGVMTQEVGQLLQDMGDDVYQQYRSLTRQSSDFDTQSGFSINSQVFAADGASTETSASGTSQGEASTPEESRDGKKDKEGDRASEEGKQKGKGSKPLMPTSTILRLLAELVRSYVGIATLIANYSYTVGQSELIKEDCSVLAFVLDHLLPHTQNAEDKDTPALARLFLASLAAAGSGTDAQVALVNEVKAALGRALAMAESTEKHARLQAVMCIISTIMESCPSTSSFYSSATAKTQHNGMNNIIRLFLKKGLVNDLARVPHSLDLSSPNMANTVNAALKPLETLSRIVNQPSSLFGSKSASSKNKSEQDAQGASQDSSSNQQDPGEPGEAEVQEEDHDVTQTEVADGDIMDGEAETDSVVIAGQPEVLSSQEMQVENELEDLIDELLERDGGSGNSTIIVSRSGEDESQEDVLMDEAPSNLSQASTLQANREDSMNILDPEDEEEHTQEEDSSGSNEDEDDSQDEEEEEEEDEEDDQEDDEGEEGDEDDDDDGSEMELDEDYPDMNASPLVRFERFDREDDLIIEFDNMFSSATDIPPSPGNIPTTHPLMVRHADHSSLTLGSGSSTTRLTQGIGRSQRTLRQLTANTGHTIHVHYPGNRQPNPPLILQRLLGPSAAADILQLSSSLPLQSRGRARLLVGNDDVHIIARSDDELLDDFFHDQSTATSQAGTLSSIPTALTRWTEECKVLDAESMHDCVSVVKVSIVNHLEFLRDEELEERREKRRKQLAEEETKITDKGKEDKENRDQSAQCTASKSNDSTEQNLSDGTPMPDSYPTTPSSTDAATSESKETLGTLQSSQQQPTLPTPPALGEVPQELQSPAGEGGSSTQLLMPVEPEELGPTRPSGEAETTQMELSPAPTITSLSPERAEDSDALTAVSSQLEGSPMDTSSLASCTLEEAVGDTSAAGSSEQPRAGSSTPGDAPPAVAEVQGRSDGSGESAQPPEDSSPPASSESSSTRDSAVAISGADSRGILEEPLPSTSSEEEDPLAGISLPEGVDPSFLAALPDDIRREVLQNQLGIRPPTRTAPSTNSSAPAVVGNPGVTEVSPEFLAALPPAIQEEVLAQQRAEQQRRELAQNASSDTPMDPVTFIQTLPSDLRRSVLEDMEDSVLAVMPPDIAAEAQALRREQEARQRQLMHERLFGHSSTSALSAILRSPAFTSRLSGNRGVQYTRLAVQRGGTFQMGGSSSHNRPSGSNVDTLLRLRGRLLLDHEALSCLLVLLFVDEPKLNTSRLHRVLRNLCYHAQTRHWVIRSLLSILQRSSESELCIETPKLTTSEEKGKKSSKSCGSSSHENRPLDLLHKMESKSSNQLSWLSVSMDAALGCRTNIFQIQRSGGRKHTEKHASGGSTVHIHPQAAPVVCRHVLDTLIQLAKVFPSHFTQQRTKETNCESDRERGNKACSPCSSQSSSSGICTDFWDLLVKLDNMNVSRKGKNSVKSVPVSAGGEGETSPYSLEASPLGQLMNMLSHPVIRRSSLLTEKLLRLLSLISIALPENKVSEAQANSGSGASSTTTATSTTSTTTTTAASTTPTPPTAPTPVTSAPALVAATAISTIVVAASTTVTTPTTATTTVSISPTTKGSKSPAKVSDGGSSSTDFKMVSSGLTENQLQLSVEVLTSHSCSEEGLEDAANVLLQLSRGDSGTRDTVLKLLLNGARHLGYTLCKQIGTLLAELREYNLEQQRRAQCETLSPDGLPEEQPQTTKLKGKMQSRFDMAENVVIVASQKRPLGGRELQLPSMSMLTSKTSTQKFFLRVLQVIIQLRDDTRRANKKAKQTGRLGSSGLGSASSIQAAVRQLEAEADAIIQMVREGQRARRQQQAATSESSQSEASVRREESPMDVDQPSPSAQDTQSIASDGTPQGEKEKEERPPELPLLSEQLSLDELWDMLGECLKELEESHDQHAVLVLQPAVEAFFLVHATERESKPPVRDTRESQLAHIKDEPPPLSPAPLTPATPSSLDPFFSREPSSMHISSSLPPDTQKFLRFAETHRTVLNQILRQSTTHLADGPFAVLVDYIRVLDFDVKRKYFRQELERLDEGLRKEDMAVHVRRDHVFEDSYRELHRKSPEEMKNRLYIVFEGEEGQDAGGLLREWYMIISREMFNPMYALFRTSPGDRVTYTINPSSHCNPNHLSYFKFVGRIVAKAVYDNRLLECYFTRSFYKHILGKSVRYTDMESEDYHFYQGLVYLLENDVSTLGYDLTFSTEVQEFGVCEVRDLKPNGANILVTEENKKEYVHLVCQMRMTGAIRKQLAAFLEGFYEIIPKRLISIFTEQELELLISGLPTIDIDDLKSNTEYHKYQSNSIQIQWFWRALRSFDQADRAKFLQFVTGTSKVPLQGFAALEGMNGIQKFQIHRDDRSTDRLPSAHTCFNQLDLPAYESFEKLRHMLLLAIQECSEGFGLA
UniProt Q07820: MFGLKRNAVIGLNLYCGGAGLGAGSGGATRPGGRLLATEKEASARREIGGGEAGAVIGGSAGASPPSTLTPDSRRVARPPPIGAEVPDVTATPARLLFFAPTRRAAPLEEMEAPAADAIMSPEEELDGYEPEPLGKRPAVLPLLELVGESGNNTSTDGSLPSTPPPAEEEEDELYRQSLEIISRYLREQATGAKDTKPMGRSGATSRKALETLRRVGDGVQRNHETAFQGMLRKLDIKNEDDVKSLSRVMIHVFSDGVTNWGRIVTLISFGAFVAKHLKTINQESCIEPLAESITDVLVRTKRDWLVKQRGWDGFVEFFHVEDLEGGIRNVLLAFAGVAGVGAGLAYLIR

Results are given in words; binding and its absence hold for the method and conditions named. In cells and extracts the contact can be indirect. Some binding calls cover weakened binding; strength is not graded here.

Assay [1] has as its target Mule (Mcl-1 ubiquitin ligase E3 (Mule)/ARF-BP1) (human (endogenous in THP-1)) (UniProt Q7Z6Z7). The experiment in a line: co-IP; lysates of mock-infected or D39 pneumococcus-exposed differentiated THP-1 cells (16 h, with or without pepstatin A) in 2% CHAPS buffer (20 mM Tris-HCl pH 7.4, 137 mM NaCl, 2 mM EDTA); anti-Mule (Abcam) overnight at 4°C, protein A agarose; blotted for Mule, Hsp70 and Mcl-1; control with non-specific rabbit IgG.

Assay [2] deals with Mcl-1 (human (endogenous in THP-1)) (UniProt Q07820). The experiment in a line: co-IP; lysates of mock-infected or D39 pneumococcus-exposed differentiated THP-1 cells (time course 4-16 h; at 16 h with or without pepstatin A) in 2% CHAPS buffer (20 mM Tris-HCl pH 7.4, 137 mM NaCl, 2 mM EDTA); anti-Mcl-1 (sc-819) overnight at 4°C, protein A agarose; blotted for Hsp70, Mule and Mcl-1; control with an excess of the Mcl-1 peptide.

With Mcl-1 (from UniProt Q07820 1-350), the binding entry in assay [1] was “binds”.

As for “Mule (Mcl-1 ubiquitin ligase E3 (Mule)/ARF-BP1) (from UniProt Q7Z6Z7 1-4374) (enzyme)”, the binding entry in assay [2] is reported as “binds”.
